Data from paper PMC6362308.
No constants are given. Whether binding was seen depends on the method and setting. Binding seen in cells or lysates may run through a third protein. Some entries that bind do so weakly or less than the wild type.

Sequences of proteins named here, by UniProt entry; tags and fusion partners are left off.
UniProt Q14974: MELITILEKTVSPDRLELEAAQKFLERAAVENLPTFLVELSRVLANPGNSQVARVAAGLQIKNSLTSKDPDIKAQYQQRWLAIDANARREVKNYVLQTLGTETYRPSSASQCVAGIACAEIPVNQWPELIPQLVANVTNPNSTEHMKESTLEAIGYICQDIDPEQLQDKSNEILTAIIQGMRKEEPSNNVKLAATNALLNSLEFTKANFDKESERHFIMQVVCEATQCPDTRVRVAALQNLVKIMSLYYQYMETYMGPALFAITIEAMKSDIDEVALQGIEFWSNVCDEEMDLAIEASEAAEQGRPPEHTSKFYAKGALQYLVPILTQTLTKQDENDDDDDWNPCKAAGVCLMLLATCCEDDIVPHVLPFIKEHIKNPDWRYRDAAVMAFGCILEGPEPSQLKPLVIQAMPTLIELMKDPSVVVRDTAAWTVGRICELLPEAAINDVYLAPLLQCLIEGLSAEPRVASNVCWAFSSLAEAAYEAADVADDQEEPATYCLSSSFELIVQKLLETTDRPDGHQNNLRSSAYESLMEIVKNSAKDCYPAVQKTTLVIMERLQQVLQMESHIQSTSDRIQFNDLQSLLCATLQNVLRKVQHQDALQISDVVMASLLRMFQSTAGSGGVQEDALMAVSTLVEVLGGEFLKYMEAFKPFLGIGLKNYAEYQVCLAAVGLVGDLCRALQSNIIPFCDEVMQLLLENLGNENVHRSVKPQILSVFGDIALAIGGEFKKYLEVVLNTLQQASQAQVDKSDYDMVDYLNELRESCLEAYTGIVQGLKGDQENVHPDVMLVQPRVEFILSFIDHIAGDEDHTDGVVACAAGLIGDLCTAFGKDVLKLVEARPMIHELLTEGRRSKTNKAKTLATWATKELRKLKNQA

Target: importin β (bait of the NLS-MAP purification) (UniProt Q14974)
Assay: pull-down; data not shown: sequential purification of microtubule-binding and importin-β-binding proteins (Yokoyama et al, 2013)

B1: RECQL4 identified in the sequential purification of microtubule- and importin-β-binding proteins (protein, UniProt O94761 1-1208)
chain: MERLRDVRERLQAWERAFRRQRGRRPSQDDVEAAPEETRALYREYRTLKRTTGQAGGGLRSSESLPAAAEEAPEPRCWGPHLNRAATKSPQSTPGRSRQGSVPDYGQRLKANLKGTLQAGPALGRRPWPLGRASSKASTPKPPGTGPVPSFAEKVSDEPPQLPEPQPRPGRLQHLQASLSQRLGSLDPGWLQRCHSEVPDFLGAPKACRPDLGSEESQLLIPGESAVLGPGAGSQGPEASAFQEVSIRVGSPQPSSSGGEKRRWNEEPWESPAQVQQESSQAGPPSEGAGAVAVEEDPPGEPVQAQPPQPCSSPSNPRYHGLSPSSQARAGKAEGTAPLHIFPRLARHDRGNYVRLNMKQKHYVRGRALRSRLLRKQAWKQKWRKKGECFGGGGATVTTKESCFLNEQFDHWAAQCPRPASEEDTDAVGPEPLVPSPQPVPEVPSLDPTVLPLYSLGPSGQLAETPAEVFQALEQLGHQAFRPGQERAVMRILSGISTLLVLPTGAGKSLCYQLPALLYSRRSPCLTLVVSPLLSLMDDQVSGLPPCLKAACIHSGMTRKQRESVLQKIRAAQVHVLMLTPEALVGAGGLPPAAQLPPVAFACIDEAHCLSQWSHNFRPCYLRVCKVLRERMGVHCFLGLTATATRRTASDVAQHLAVAEEPDLHGPAPVPTNLHLSVSMDRDTDQALLTLLQGKRFQNLDSIIIYCNRREDTERIAALLRTCLHAAWVPGSGGRAPKTTAEAYHAGMCSRERRRVQRAFMQGQLRVVVATVAFGMGLDRPDVRAVLHLGLPPSFESYVQAVGRAGRDGQPAHCHLFLQPQGEDLRELRRHVHADSTDFLAVKRLVQRVFPACTCTCTRPPSEQEGAVGGERPVPKYPPQEAEQLSHQAAPGPRRVCMGHERALPIQLTVQALDMPEEAIETLLCYLELHPHHWLELLATTYTHCRLNCPGGPAQLQALAHRCPPLAVCLAQQLPEDPGQGSSSVEFDMVKLVDSMGWELASVRRALCQLQWDHEPRTGVRRGTGVLVEFSELAFHLRSPGDLTAEEKDQICDFLYGRVQARERQALARLRRTFQAFHSVAFPSCGPCLEQQDEERSTRLKDLLGRYFEEEEGQEPGGMEDAQGPEPGQARLQDWEDQVRCDIRQFLSLRPEEKFSSRAVARIFHGIGSPCYPAQVYGQDRRFWRKYLHLSFHALVGLATEELLQVAR
For B1, the binding was “binds”.
